Laboratory results from patent US20050070689A1 (Genentech, published 2005).
These are yes or no findings as the source states them, for the method shown. Some results given as binding are weak or reduced against the parent protein; the word gives no strength. For part of these data: Sequences can lack the tags named with a protein.

Protein sequences, listed by entry. Tags and fused reporters are not part of them. Lines headed by an entry give the natural chain unless they say otherwise; changes in a name come on top.
UniProt P01375: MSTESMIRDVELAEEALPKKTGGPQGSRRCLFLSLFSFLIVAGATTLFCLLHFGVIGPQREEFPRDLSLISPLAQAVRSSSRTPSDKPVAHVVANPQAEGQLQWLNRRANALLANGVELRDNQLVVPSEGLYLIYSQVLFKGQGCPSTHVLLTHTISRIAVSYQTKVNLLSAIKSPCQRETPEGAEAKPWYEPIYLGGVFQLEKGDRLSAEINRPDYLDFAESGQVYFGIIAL
UniProt Q96RJ3: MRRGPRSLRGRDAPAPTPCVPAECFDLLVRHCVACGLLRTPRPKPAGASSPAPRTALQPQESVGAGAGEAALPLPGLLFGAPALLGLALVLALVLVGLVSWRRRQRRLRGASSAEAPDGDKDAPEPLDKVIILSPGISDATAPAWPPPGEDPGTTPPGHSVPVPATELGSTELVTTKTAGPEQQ

Assays:
[1] = target: chimeric ligand with the intracellular and transmembrane regions from TNF-alpha and the extracellular region of TALL-1 (aa 75-285), on transfected COS 7 cells (human) (UniProt P01375); experiment: receptor-Fc staining of transfected COS 7 cells, biotinylated anti-human antibody and Cy3-streptavidin
[2] = target: chimeric ligand with the intracellular and transmembrane regions from TNF-alpha and the extracellular region of TALL-1 (aa 75-285), on transfected COS 7 cells (human) (UniProt P01375); experiment: receptor-Fc (1 µg/ml) staining of transfected COS 7 cells, biotinylated anti-human antibody and Cy3-streptavidin

Molecule | binding [1] | binding [2]
hBR3-hFc (from UniProt Q96RJ3 2-62) (Fc fusion) | binds | 
Murine BR3-Fc (Fc fusion, Only 'prepared as described above' is said; also called mBR3-hFc; not shown: human IgG1 Fc region) MGARRLRVRSQRSRDSSVPTQCNQTECFDPLVRNCVSCELFHTPDTGHTSSLEPGTALQPQEGSALRPDVA | binds | 
TACI-hFc (Fc fusion, not shown: a dimerising Fc or GST) SGLGRSRRGGRSRVDQEERFPQGLWTGVAMRSCPEEQYWDPLLGTCMSCKTICNHQSQRTCAAFCRSLSCRKEQGKFYDHLLRDCISCASICGQHPKQCAYFCENKLRSPVNLPPELRRQRSGEVENNSDNSGRYQGLEHRGSEASPALPGLKLSADQVALVYST |  | binds
